Record: PubChem BioAssay AID504764 (Drosophila RNAi Screening Center, 2011)
Test: 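Genes whose knock-down alters Notch-dependent transcription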 (primary screen). Cells: Drosophila Kc167 cells. Reagent: long dsRNA against Drosophila genes. Time to read-out: about 5 days (4 days dsRNA, then 24 h after transfection). Challenge: transfection of constitutively active membrane-tethered Notch lacking the extracellular domain, read 24 h later. Measured: 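Firefly luciferase from an E(spl)m3 reporter with active Notch, plus control-promoter and uninduced reporter wells for normalisation; unnormalised counts, duplicate wells a and b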. Scale: induced reporter light, run 1, well a and induced reporter light, run 1, well b: higher = more light from the Notch target reporter with active Notch; control promoter light, run 1, well a and control promoter light, run 1, well b: higher = more light from the viral control promoter (cell number, transfection, viability); uninduced reporter light, run 1, well a: higher = more light from the Notch target reporter without active Notch. Hit rule: 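Hit if the duplicate-averaged log2 ratio of induced to control-promoter light gives a plate-wise z beyond ±2, or induced to uninduced beyond ±1.8; weak-control or discordant-duplicate wells dropped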. Calls: active = modifier hit (raised or lowered Notch signal); inactive = not a hit.
In all, the deposit lists about 22,000 reagents; below is a random part of those that have a named target and a result. In the full data, 403 (1.9%) got an active call. 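Unnormalised raw counts per well; ratio z-scores behind the hit calls and whether each hit raises or lowers signal are not deposited.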 Not given: the amount of reagent.

CG33922 [DRSC00050] — induced reporter light, run 1, well a: 1.03e5; induced reporter light, run 1, well b: 98110; control promoter light, run 1, well a: 1.48e5; control promoter light, run 1, well b: 1.27e5; uninduced reporter light, run 1, well a: 7465; call: inactive
Sgs4 (Salivary gland secretion 4) [DRSC18715] — induced reporter light, run 1, well a: 1.12e5; induced reporter light, run 1, well b: 1.31e5; control promoter light, run 1, well a: 1.98e5; control promoter light, run 1, well b: 2.06e5; uninduced reporter light, run 1, well a: 7242; call: inactive
pen-2 (presenilin enhancer) [DRSC05722] — induced reporter light, run 1, well a: 92445; induced reporter light, run 1, well b: 1.08e5; control promoter light, run 1, well a: 1.12e5; control promoter light, run 1, well b: 95955; uninduced reporter light, run 1, well a: 8125; call: inactive
Alg9 (ALG9, alpha-1,2-mannosyltransferase) [DRSC14407] — induced reporter light, run 1, well a: 100; induced reporter light, run 1, well b: 25; control promoter light, run 1, well a: 1395; control promoter light, run 1, well b: 205; uninduced reporter light, run 1, well a: 5; call: inactive
CG15080 [DRSC06511] — induced reporter light, run 1, well a: 86070; induced reporter light, run 1, well b: 95755; control promoter light, run 1, well a: 1.38e5; control promoter light, run 1, well b: 1.40e5; uninduced reporter light, run 1, well a: 10030; call: inactive
Fum4 (Fumarase 4) [DRSC22577] — call: inactive
gammaTub37C (gamma-Tubulin at 37C) [DRSC03535] — induced reporter light, run 1, well a: 2.39e5; induced reporter light, run 1, well b: 2.63e5; control promoter light, run 1, well a: 1.98e5; control promoter light, run 1, well b: 2.22e5; uninduced reporter light, run 1, well a: 19820; call: inactive
asun (asunder) [DRSC16733] — induced reporter light, run 1, well a: 1.88e5; induced reporter light, run 1, well b: 1.94e5; control promoter light, run 1, well a: 2.51e5; control promoter light, run 1, well b: 3.07e5; uninduced reporter light, run 1, well a: 15060; call: inactive
CG15615 [DRSC06568] — induced reporter light, run 1, well a: 67720; induced reporter light, run 1, well b: 1.31e5; control promoter light, run 1, well a: 1.67e5; control promoter light, run 1, well b: 1.63e5; uninduced reporter light, run 1, well a: 12065; call: inactive
CG12464 [DRSC06156] — induced reporter light, run 1, well a: 1.02e5; induced reporter light, run 1, well b: 93005; control promoter light, run 1, well a: 1.32e5; control promoter light, run 1, well b: 1.20e5; uninduced reporter light, run 1, well a: 9455; call: inactive
CG33309 [DRSC01421] — induced reporter light, run 1, well a: 1.32e5; induced reporter light, run 1, well b: 1.30e5; control promoter light, run 1, well a: 1.06e5; control promoter light, run 1, well b: 89300; uninduced reporter light, run 1, well a: 10520; call: inactive
Dap160 (Dynamin associated protein 160) [DRSC03313] — induced reporter light, run 1, well a: 1.22e5; induced reporter light, run 1, well b: 1.28e5; control promoter light, run 1, well a: 83645; control promoter light, run 1, well b: 98025; uninduced reporter light, run 1, well a: 9115; call: inactive

Records listed so far whose target name starts with A or a (2):
Alg9 (ALG9, alpha-1,2-mannosyltransferase) [DRSC14407] — induced reporter light, run 1, well a: 100; induced reporter light, run 1, well b: 25; control promoter light, run 1, well a: 1395; control promoter light, run 1, well b: 205; uninduced reporter light, run 1, well a: 5; call: inactive
asun (asunder) [DRSC16733] — induced reporter light, run 1, well a: 1.88e5; induced reporter light, run 1, well b: 1.94e5; control promoter light, run 1, well a: 2.51e5; control promoter light, run 1, well b: 3.07e5; uninduced reporter light, run 1, well a: 15060; call: inactive
